Source: patent publication US20100035932A1, “NOVEL FORMYL PEPTIDE RECEPTOR LIKE 1 AGONISTS THAT INDUCE MACROPHAGE TUMOR NECROSIS FACTOR ALPHA AND COMPUTATIONAL STRUCTURE-ACTIVITY RELATIONSHIP ANALYSIS OF THEREOF” (priority 2008, published 2010)

Experiment: Endotoxin assay (Limulus Amebocyte Lysate)
Conditions: below detection limit

Row | SMILES | Endotoxin contamination
1 | O=C(N/N=C/c1ccc(-c2cccc(C(F)(F)F)c2)o1)c1ccc(F)cc1 [Compound 2, 4-fluoro-benzoic acid [5-(3-trifluoromethyl-phenyl)-2-furyl]methylene-hydrazide] | contained no endotoxin
2 | O=C(N/N=C/c1ccc(-c2cccc(Br)c2)o1)c1cccnc1 [Compound 1] | contained no endotoxin
